# Test results reported in PubChem BioAssay AID540256 (National Center for Advancing Translational Sciences (NCATS), 2011).
# Out of some 300,000 compounds screened, about 3,700 (1.2%) were called active. Inconclusive results, whose numbers are uncertain, are shown with a selection of clear calls. Calls follow the shape of the full dose curve; tested in HEK293 cells. Potencies beside an inconclusive call are fits to weak or partial responses and may not hold up.
# Assay: qHTS for Inhibitors of binding or entry into cells for Lassa Virus; also: nearly all actives have a fitted effect of over 50% in size
# Settings: Lassa virus pseudotype entry inhibition, cell reporter; activity change, negative = inhibition: at 37.9 µM (top of the series) unless noted
# % is scaled to controls: 0 for no effect and ±100 for the full control effect; potency is read from the fitted curve at half-maximal effect.
Compound,Potency,"activity change, negative = inhibition"
COc1ccc(Cl)cc1CN1CCOCC1,"inconclusive: 11.2 µM [activator, partial curve, poor fit]",
CCCn1c(SCN2C(=O)c3ccccc3C2=O)nc2cc(Cl)ccc2c1=O,"inconclusive: 15.8 µM [inhibitor, partial curve, poor fit]",
CC(C)N(CCc1ccncc1)C(=S)Nc1cccc(Cl)c1,"inconclusive: 11.2 µM [inhibitor, partial curve, poor fit]",
Cc1ccc(N=C2NC(=O)/C(=C/c3cn(C)c4ccccc34)S2)cc1C,active: 0.103 µM,
Cc1ccccc1Oc1ncnc(N)c1[N+](=O)[O-],,inactive: -17.6%
Oc1ccc(COCc2ccccc2)c2cccnc12,"inconclusive: 35.5 µM [inhibitor, single point]",
Cc1cccc(OCc2nnc(SCC(=O)NCC3CCCO3)n2C)c1 (configuration not stated),"inconclusive: 35.5 µM [inhibitor, single point]",
CCc1ccc2c(-c3cccc(Cl)c3)nc(=O)n(CC)c2n1,"inconclusive: 23.1 µM [inhibitor, partial curve, poor fit]",
C=CCc1ccccc1OCCSc1nc(-c2ccc(C(C)(C)C)cc2)nc2cc(=O)[nH]n12,"inconclusive: 11.2 µM [activator, partial curve, poor fit]",
C/C(=N\NC(=O)c1c(-c2ccccc2Cl)noc1C)c1cccc(NC(=O)C(C)C)c1,,inactive: -1.23%
COc1ccc(-n2nc3ccc(NC(=O)c4ccc(-c5cc(Cl)ccc5Cl)o4)cc3n2)cc1,"inconclusive: 35.5 µM [activator, single point]",
COc1ccc(CN(C)C(=O)c2sccc2-c2ccccc2)c(OC)c1,"inconclusive: 8.91 µM [inhibitor, partial curve, poor fit]",
COc1ccc(NC(=O)/C=C/c2cccc(F)c2)cn1,,inactive: -10.1%
Cc1c(NC(=O)c2cccnc2Cl)c(=O)n(-c2ccccc2)n1C,"inconclusive: 0.112 µM [inhibitor, full curve, poor fit]",
Oc1ccccc1-c1cc(C(F)(F)C(F)F)nc(-c2ccccc2)n1,"inconclusive: 2.31 µM [activator, full curve, poor fit]",
Cc1ccccc1C(=O)Nc1nc2n(n1)C(c1ccccc1)CC(=O)N2 (configuration not stated),,inactive: -9.16%
CCN(Cc1ccccc1)C(=O)c1c(C)oc2ncn(C)c(=O)c12,"inconclusive: 17.8 µM [activator, single point]",
Cc1nc(C)c(C(=O)N(c2ccc(C)c(C)c2)C(C(=O)NCc2ccco2)c2ccccc2)s1 (configuration not stated),active: 4.61 µM,
CC(C)N(Cc1ccccc1)C(=S)Nc1ccccc1F,"inconclusive: 35.5 µM [inhibitor, single point]",
O=C(Nc1ccc(Cl)cc1)c1cccc(N2C(=O)C3C4CCC(C4)C3C2=O)c1 (configuration not stated),"inconclusive: 16.4 µM [inhibitor, single point]",
CC(OC(=O)c1cccc(Cl)c1)C(=O)NC1CCCCC1C (configuration not stated),,inactive: -8.09% [at 46.1 µM]
CC12CCC3c4ccc(OC(=O)N(CCCl)CCCl)cc4CCC3C1CCC2O (configuration not stated),active: 5.62 µM,
Cc1cc2ncn(CCOc3ccccc3)c2cc1C,"inconclusive: 5.01 µM [activator, single point]",

# Fetched by compound from above (2):
Compound,Potency,"activity change, negative = inhibition"
CC(C)N(CCc1ccncc1)C(=S)Nc1cccc(Cl)c1,"inconclusive: 11.2 µM [inhibitor, partial curve, poor fit]",
C=CCc1ccccc1OCCSc1nc(-c2ccc(C(C)(C)C)cc2)nc2cc(=O)[nH]n12,"inconclusive: 11.2 µM [activator, partial curve, poor fit]",

# Further structures

Compound,Potency,"activity change, negative = inhibition"
CCOC(=O)c1ccc(NC(=O)c2cccc(S(=O)(=O)N3c4ccccc4CC3C)c2)s1 (configuration not stated),"inconclusive: 1.3 µM [inhibitor, partial curve, poor fit]",
COc1cccc(C(=O)COC(=O)c2ccc(NC(=O)c3ccccc3)cc2)c1,"inconclusive: 11.2 µM [inhibitor, partial curve, poor fit]",
CC1CN(C(=O)Nc2ccc(C(=O)NCCc3ccccc3)cc2)c2ccccc2S1 (configuration not stated),,inactive: 21.6% [at 46.1 µM]
COc1ccc(CNC(=O)CN(C(=O)c2snc(C(N)=O)c2N)c2ccccc2F)cc1,"inconclusive: 3.55 µM [inhibitor, partial curve, poor fit]",
CC(=O)c1c(C(C)=O)c(C)n(-c2nc(-c3ccc(C)c(C)c3)c(C)s2)c1C,"inconclusive: 29.1 µM [inhibitor, single point]",
O=C(NC1CCCC1)c1cc(-c2ccc(Cl)c(Cl)c2)on1,,inactive: -5.73%
CCCCC(=O)NC(c1ccc(OC)c(OC)c1)c1ccc2cccnc2c1O (configuration not stated),"inconclusive: 15.8 µM [inhibitor, single point]",
Fc1ccc(Cn2c(SCc3ccc(F)c(C(F)(F)F)c3)nnc2C(F)(F)F)cc1,"inconclusive: 29.1 µM [activator, single point]",
CC(OC(=O)c1cccc(-n2cnnn2)c1)C(=O)Nc1cccc(Cl)c1 (configuration not stated),"inconclusive: 1 µM [inhibitor, single point]",
COc1ccc(/C=C2\CCc3ccccc3C2=O)cc1O,"inconclusive: 14.1 µM [inhibitor, partial curve, poor fit]",
COc1ccc(-c2cn3nc(SCC(=O)NC4CCCCC4)ccc3n2)cc1,"inconclusive: 2.24 µM [inhibitor, single point]",
Cc1cc(C)cc(-n2c(SCC(=O)N3CCCCC3)nc3c([nH]c4ccccc43)c2=O)c1,,inactive: 22.4% [at 46.1 µM]
COc1ccc(-c2csc(N(CCCN(C)C)C(=O)c3ccc(Br)cc3)n2)cc1,"inconclusive: 35.5 µM [inhibitor, single point]",
Cc1ccc(S(=O)(=O)Nc2cccc(Oc3cnccn3)c2)cc1,"inconclusive: 17.8 µM [inhibitor, single point]",
CCc1ccccc1NC(=O)c1nnn(-c2ccc(F)cc2)c1C,"inconclusive: 28.2 µM [activator, single point]",
O=C(Nc1nnc(-c2ccc(F)cc2)o1)c1cc(Cl)sc1Cl,"inconclusive: 35.5 µM [inhibitor, single point]",
COCCCNC(=S)NNC(=S)Nc1ccc(F)cc1F,,inactive: 2.8%
c1ccc2nc(-c3nc4ccccc4[nH]3)ccc2c1,"inconclusive: 6.31 µM [inhibitor, partial curve, poor fit]",
Cc1c(Cl)ccc2sc(NC(=O)c3ccc(S(=O)(=O)N4CCCc5ccccc54)cc3)nc12,,inactive: -11.9% [at 46.1 µM]
O=S(=O)(c1ccc2ccccc2c1)N(CC(O)COCc1ccco1)c1ccccc1 (configuration not stated),"inconclusive: 13 µM [inhibitor, partial curve, poor fit]",
Cc1cccc(N2CCN(CC(=O)N(C3CCCC3)C3CCS(=O)(=O)C3)CC2)c1C (configuration not stated),"inconclusive: 2.82 µM [inhibitor, partial curve, poor fit]",
COc1ccc(CC(=O)Nc2cccc(-c3csc(C)n3)c2)cc1,"inconclusive: 14.1 µM [inhibitor, partial curve, poor fit]",
CC(=C1C(=O)c2ccccc2C1=O)N1CCN(C/C=C/c2ccccc2)CC1,,inactive: -4.4%

Compound,Potency,"activity change, negative = inhibition"
Cc1ccc(CNC(=O)CN2CCN(c3ccc(F)cc3)CC2)cc1,"inconclusive: 17.8 µM [inhibitor, partial curve, poor fit]",
CCSc1nc2c(c(=O)[nH]c(=O)n2C)n1CC(O)COc1ccccc1C (configuration not stated),,inactive: -4.34%
COc1ccccc1C=NNC(=O)c1ccccc1OCCOc1ccccc1,"inconclusive: 35.5 µM [inhibitor, single point]",
Cc1ccc(CCNC(=O)c2cc3sccc3n2Cc2ccc(C)cc2)cc1,,inactive: 12.3% [at 46.1 µM]
Clc1ccc2nc(CSc3ccccc3)cn2c1,"inconclusive: 1.78 µM [inhibitor, full curve]",
FC(F)Oc1cccc(NC(=S)N2CCN(c3ccccn3)CC2)c1,"inconclusive: 23.1 µM [inhibitor, single point]",
CN(C)c1ccc(C(C(=O)NC2CCCCC2)N(Cc2ccco2)C(=O)c2snc(C(N)=O)c2N)cc1 (configuration not stated),active: 12.6 µM,
O=C(CCc1ccccc1)c1nnc(-c2ccccc2)o1,"inconclusive: 5.01 µM [inhibitor, full curve, poor fit]",
CC(=O)N(C(C)=O)N1C(=O)/C(=C/c2ccc(Cl)cc2)SC1=S,"inconclusive: 12.6 µM [inhibitor, partial curve, poor fit]",
CN=C1SC(CC(=O)Nc2cccc(C(F)(F)F)c2)C(=O)N1C (configuration not stated),,inactive: -4.2%
Cc1cc(-c2n[nH]c(=S)n2/N=C/C(Br)=C/c2ccccc2)n[nH]1,"inconclusive: 35.5 µM [inhibitor, single point]",
Cc1c(N=N/C(C(=O)Nc2ccccc2)=C(/O)c2ccccc2)c(=O)n(-c2ccccc2)n1C,,inactive: -21.8%
CCCOc1ccccc1OCC(=O)Nc1cc(Cl)ccc1-n1cncn1,"inconclusive: 11.2 µM [inhibitor, partial curve, poor fit]",
COc1ccc(N2C(=O)CC(N3CCOCC3)C2=O)cc1 (configuration not stated),,inactive: -12.1%
C=C1c2c(Cl)ccc(O)c2C(O)=C2C(=O)[C@@]3(O)C(O)=C(C(N)=O)C(=O)[C@@H](N(C)C)[C@@H]3[C@@H](O)[C@H]12,"inconclusive: 0.0315 µM [activator, full curve, poor fit]",
Cc1cc(C)c(NC(=S)NC(=O)c2c(Cl)c(C)nn2C)c([N+](=O)[O-])c1,"inconclusive: 0.794 µM [activator, single point]",
CC1CCc2c(sc3ncnc(SC(C)C(=O)NCC4CCCO4)c23)C1 (configuration not stated),"inconclusive: 35.5 µM [inhibitor, single point]",
Nc1ccn([C@@H]2O[C@H](CO)[C@@H](O)C2O)c(=O)n1 (some centres not stated),"inconclusive: 2.06 µM [inhibitor, full curve]",
COCCOC(=O)C1=C(N)OC2=C(C(=O)CCC2)C1c1cccnc1 (configuration not stated),,inactive: 0.763%
CC(/C=C/C=C/c1ccccc1)=N/NC(=O)CNc1ccc(C)cc1,"inconclusive: 0.92 µM [inhibitor, full curve, poor fit]",

# No new results follow: two of the compounds above.
Compound,Potency,"activity change, negative = inhibition"
FC(F)Oc1cccc(NC(=S)N2CCN(c3ccccn3)CC2)c1,"inconclusive: 23.1 µM [inhibitor, single point]",
CN(C)c1ccc(C(C(=O)NC2CCCCC2)N(Cc2ccco2)C(=O)c2snc(C(N)=O)c2N)cc1 (configuration not stated),active: 12.6 µM,
